Data taken from US20120045393A1 (priority 2009, published 2012).

Assay: general procedure: Fmoc solid-phase peptide synthesis; Fmoc-PAL-PEG-PS resin (0.2 mmol/g) preloaded with Fmoc-Pro-azaGly; Fmoc-Pro/Fmoc-Gly-NovaSyn-TGT resin (0.22 mmol/g); 2-; PyBop-DIEA; FastMoc protocol; DIC for bromoacetic acid
Details: whole synthesis
[1] = scale of the general procedure typically 50 mmol (as printed, 50-umol elsewhere) on Symphon

Substance	isolated mass [mg]	isolated yield [1] [%]	isolated mass (scale 0.25 mmol) [mg]	isolated yield (scale 0.25 mmol) [%]
DO3A1-CM-Dna12-Arg-Trp-Ser-His-Darg-Trp-Bpa4-Pro-Ach2	22.0	4.6		
DO3A10CM-Dna12-Arg-Trp-Ser-His-Darg-Trp-Bpa4-OH	119	27		
DO3A10CM-Dna12-Arg-Trp-Ser-His-Darg-Trp-Bpa4-Pro-A1guao3pt	15.5	9.6		
DO3A10CM-Dna12-Arg-Trp-Ser-His-Darg-Trp-Bpa4-Pro-Ae	56.0	36.6		
DO3A10CM-Dna12-Arg-Trp-Ser-His-Darg-Trp-Bpa4-Pro-Ap	5.6	1.2		
DO3A10CM-Dna12-Arg-Trp-Ser-His-Darg-Trp-Bpa4-Pro-Aprp1h3	12.3	7.9		
DO3A10CM-Dna12-Arg-Trp-Ser-His-Darg-Trp-Bpa4-Pro-Az23m2po-NH2	18.7	3.9		
DO3A10CM-Dna12-Arg-Trp-Ser-His-Darg-Trp-Bpa4-Pro-Da15o3pt	16.4	3.4		
DO3A10CM-Dna12-Arg-Trp-Ser-His-Darg-Trp-Bpa4-Pro-Gly-Abn	36.5	23		
DO3A10CM-Dna12-Arg-Trp-Ser-His-Darg-Trp-Bpa4-Pro-Gly-Abt1h4	11.3	7		
DO3A10CM-Dna12-Arg-Trp-Ser-His-Darg-Trp-Bpa4-Pro-Gly-Aprp1h3	30.0	18.6		
DO3A10CM-Dna12-Arg-Trp-Ser-His-Darg-Trp-Bpa4-Pro-Gly-Arg-NH2	24.2	4.7		
DO3A10CM-Dna12-Arg-Trp-Ser-His-Darg-Trp-Bpa4-Pro-Gly-Az23(py2)2po-Ap	1.2	0.7		
DO3A10CM-Dna12-Arg-Trp-Ser-His-Darg-Trp-Bpa4-Pro-Gly-Gln-NH2	29.0	5.7		
DO3A10CM-Dna12-Arg-Trp-Ser-His-Darg-Trp-Bpa4-Pro-Gly-NH2	12.7	2.7		
DO3A10CM-Dna12-Arg-Trp-Ser-His-Darg-Trp-Bpa4-Pro-Gly-Phe-NH2	15.5	3		
DO3A10CM-Dna12-Arg-Trp-Ser-His-Darg-Trp-Bpa4-Pro-Gua	16.0	10.4		
DO3A10CM-Dna12-Arg-Trp-Ser-His-Darg-Trp-Bpa4-Pro-Mo2abn	26.5	16.6		
DO3A10CM-Dna12-Arg-Trp-Ser-His-Darg-Trp-Bpa4-Pro-Pheol	25.4	5.1		
DO3A10CM-Dna12-Arg-Trp-Ser-His-Darg-Trp-Bpa-Pro-Gly-Abn	18.2	11		
DO3A10CM-Dna12-Arg-Trp-Ser-His-Darg-Trp-OH	53.5	14.2		
DO3A10CM-Dnal2-Arg-Trp-Ser-His-Darg-Trp-Bpa4-Pro-Az34 m3buo-NH2			14.5	3
DO3A10CM-Sar-Arg-Trp-Ser-His-Darg-Trp-Bpa4-Pro-Az23po-Da15o3pt	31.0	6.6		
DO3A10CM-Sar-Arg-Trp-Ser-His-Darg-Trp-Bpa4-Pro-Az23po-Dabt14	20.5	4.4		
DO3A100CM-Dna12-Arg-Trp-Ser-His-Darg-Trp-Bpa4-Pro-Gly-Abt1h4	18.0	11.5		
Sar-Arg-Trp-Ser-His-Darg-Trp-Bpa4-Pro-Da15o3pt	59.0	16.4		
